Laboratory results as given in the supplement of paper PMC11732987, “Enantioselective OTUD7B fragment discovery through chemoproteomics screening and high-throughput optimisation” (Communications Chemistry, 2025).
This is one part of the list. The data scatter; read single values as rough.

Amino acid sequences for entries named in this document (tags omitted). A change or cut given only in a name is not applied to a line headed by its entry. Residues count along the entry.
UniProt Q9Y3D2, 23-51: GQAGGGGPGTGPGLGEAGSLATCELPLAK
UniProt Q99707: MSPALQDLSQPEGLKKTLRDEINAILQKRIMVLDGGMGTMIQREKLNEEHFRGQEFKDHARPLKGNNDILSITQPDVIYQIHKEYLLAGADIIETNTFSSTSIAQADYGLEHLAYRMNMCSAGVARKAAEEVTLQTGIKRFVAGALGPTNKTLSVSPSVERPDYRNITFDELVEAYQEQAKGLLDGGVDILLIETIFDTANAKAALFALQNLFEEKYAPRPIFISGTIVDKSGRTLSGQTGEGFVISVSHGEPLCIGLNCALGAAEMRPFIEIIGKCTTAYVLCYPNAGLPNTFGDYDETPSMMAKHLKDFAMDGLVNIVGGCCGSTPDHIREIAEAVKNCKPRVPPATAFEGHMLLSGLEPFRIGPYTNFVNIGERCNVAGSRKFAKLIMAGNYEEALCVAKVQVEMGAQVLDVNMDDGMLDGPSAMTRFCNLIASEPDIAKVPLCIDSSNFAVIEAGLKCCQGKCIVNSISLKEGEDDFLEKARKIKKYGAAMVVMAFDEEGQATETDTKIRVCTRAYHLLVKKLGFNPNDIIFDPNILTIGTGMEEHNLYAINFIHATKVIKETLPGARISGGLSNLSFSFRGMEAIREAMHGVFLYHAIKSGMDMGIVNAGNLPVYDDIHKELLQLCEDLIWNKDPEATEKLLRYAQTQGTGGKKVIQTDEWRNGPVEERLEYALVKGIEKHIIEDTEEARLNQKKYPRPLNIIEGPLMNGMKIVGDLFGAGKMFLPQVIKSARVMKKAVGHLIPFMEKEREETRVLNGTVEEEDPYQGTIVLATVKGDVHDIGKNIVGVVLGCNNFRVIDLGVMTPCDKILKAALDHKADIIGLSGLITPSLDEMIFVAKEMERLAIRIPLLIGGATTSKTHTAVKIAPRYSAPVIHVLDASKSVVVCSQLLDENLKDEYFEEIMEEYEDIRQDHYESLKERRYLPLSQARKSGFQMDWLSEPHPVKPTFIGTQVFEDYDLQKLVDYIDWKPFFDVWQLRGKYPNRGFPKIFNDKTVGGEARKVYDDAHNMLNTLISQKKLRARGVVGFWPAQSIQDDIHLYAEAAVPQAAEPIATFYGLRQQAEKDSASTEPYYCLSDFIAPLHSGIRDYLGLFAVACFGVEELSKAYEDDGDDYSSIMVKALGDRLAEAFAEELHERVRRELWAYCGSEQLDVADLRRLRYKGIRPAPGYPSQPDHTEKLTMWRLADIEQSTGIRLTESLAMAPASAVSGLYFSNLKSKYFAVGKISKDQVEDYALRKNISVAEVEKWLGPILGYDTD
UniProt Q96I59: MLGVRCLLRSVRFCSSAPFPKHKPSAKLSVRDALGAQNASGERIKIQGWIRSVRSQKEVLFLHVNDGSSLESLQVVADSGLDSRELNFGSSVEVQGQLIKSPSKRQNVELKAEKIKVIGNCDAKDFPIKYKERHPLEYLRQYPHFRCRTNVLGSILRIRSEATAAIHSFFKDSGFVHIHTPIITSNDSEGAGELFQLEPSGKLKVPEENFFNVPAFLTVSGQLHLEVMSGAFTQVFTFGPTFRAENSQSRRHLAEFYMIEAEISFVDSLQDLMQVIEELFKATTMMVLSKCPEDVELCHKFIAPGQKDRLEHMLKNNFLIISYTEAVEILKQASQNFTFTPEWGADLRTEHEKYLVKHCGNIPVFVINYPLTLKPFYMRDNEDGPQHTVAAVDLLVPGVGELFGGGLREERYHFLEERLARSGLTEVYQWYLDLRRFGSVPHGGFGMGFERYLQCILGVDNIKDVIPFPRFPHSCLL
UniProt P35580, 87-106: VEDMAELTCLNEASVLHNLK
UniProt Q9BT17: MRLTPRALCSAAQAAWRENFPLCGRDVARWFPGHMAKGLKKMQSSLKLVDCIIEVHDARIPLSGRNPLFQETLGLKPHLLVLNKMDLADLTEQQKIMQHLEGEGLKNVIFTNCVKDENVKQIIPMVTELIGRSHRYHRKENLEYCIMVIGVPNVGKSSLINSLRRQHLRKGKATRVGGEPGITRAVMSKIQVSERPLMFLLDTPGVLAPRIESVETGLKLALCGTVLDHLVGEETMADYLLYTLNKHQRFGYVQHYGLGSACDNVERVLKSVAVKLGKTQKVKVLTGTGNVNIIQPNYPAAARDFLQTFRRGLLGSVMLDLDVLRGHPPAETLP
UniProt Q4G0N4: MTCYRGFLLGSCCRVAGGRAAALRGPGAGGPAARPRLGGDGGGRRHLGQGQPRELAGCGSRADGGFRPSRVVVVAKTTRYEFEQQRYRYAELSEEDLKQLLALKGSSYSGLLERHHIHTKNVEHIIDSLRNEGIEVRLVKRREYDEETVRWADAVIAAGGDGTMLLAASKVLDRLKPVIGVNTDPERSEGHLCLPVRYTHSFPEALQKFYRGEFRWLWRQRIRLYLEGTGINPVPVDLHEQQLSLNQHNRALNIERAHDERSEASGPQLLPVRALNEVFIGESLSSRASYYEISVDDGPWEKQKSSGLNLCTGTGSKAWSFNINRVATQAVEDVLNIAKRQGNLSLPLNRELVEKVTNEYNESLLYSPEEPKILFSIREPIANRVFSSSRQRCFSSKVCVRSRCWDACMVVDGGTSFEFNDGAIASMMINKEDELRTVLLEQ
UniProt B2RTY4: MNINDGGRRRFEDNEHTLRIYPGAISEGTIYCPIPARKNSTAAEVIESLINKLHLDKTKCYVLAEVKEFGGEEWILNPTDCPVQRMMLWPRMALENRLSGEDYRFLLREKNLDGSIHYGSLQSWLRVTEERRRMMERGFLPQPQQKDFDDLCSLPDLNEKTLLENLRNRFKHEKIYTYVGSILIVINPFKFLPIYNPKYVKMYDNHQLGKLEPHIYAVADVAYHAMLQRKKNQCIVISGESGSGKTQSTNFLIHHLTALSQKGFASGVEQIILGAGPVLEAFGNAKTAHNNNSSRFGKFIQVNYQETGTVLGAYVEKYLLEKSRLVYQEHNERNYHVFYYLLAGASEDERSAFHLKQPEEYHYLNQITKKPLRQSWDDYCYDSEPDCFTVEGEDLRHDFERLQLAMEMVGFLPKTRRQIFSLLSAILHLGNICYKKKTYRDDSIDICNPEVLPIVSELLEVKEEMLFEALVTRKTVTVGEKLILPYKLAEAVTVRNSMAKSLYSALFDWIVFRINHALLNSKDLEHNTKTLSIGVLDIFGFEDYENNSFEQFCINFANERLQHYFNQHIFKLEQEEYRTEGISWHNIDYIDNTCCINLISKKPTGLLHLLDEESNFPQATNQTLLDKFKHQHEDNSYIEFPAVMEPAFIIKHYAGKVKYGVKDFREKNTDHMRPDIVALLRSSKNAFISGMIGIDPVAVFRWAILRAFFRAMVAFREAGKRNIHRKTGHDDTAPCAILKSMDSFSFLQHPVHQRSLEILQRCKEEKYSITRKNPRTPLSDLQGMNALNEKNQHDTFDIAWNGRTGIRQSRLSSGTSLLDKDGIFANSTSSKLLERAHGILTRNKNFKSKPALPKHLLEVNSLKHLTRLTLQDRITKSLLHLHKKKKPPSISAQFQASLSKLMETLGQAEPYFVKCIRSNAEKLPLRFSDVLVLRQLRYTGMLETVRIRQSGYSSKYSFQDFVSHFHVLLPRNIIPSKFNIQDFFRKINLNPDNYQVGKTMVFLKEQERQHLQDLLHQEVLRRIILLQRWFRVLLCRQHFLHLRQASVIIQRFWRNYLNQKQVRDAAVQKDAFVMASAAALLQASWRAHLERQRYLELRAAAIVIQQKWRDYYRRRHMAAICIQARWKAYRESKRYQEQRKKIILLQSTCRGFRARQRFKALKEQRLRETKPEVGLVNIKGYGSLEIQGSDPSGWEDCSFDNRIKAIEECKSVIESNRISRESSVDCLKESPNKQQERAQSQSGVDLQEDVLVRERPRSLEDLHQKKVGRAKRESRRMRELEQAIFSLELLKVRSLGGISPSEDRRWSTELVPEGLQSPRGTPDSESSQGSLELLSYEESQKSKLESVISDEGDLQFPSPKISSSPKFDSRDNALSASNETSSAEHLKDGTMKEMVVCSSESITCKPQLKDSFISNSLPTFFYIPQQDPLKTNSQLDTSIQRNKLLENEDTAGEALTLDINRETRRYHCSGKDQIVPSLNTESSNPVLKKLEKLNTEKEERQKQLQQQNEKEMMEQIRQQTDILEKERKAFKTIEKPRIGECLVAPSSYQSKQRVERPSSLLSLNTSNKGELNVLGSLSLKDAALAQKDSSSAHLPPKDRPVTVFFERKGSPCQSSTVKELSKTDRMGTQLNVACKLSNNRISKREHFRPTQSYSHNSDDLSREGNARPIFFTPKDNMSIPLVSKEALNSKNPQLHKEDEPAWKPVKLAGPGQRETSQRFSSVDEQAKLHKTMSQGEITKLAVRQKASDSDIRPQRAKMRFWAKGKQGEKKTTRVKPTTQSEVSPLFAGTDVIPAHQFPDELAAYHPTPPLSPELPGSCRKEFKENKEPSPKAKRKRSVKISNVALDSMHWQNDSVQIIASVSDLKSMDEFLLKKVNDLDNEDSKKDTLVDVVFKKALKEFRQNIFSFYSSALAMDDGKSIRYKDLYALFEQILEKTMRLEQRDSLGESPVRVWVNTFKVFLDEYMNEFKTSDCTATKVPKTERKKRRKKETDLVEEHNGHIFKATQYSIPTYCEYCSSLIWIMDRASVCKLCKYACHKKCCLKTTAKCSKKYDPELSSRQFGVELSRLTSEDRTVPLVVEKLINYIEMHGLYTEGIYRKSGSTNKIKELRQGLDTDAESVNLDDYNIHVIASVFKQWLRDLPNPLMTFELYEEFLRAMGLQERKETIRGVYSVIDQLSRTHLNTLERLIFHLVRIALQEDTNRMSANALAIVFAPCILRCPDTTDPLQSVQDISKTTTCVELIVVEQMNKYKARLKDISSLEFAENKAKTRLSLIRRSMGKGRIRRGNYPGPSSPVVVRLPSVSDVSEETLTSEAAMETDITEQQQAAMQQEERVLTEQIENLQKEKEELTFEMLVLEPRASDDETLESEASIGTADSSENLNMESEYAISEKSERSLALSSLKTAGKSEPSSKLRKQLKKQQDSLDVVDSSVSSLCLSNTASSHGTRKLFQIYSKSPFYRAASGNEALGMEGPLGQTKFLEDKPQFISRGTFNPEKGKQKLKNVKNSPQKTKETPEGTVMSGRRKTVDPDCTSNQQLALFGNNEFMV
UniProt O43795: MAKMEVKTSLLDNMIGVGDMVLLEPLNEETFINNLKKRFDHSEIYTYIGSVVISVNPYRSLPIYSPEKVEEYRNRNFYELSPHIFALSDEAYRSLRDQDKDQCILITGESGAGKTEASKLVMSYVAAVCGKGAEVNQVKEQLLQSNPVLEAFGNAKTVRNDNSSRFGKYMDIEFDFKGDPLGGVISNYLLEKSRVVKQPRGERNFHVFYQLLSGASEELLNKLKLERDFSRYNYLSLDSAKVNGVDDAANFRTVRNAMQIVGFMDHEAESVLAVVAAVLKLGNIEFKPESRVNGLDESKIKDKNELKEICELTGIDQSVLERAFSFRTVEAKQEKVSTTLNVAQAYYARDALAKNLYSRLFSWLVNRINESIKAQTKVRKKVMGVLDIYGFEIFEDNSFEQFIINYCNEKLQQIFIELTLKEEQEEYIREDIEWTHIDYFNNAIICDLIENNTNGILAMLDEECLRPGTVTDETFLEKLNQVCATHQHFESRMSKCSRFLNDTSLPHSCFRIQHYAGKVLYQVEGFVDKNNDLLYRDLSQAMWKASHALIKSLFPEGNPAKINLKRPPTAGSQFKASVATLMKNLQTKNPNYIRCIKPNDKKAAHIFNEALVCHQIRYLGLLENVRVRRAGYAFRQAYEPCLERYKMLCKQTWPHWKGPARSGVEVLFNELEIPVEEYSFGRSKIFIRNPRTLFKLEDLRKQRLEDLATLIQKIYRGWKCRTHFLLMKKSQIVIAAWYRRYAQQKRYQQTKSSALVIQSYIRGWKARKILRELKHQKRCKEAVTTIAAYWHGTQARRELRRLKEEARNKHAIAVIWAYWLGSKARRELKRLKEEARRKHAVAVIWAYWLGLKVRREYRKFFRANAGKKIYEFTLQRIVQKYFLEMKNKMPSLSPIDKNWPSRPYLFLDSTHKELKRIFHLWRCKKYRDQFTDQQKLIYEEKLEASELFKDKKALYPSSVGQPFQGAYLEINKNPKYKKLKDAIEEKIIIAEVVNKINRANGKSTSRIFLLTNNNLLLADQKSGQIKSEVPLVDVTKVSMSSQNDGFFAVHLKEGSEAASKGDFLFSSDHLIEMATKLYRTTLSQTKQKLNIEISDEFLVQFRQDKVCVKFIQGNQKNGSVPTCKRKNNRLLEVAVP

Key:
[1] = compound: ClCC(=O)N[C@@H]1CCCc2ccccc12; assay: log2 mean competition ratio of IA-DTB cysteine labelling (DMSO/compound) (log2 ratio); higher = stronger cysteine engagement by compound; settings: treatment time: 4 h, cell line lysate: HEK293T
Protocol: (§1)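 IA-DTB competitive cysteine chemoproteomics in HEK293T RIPA lysate. Lysates were treated with compound 29 or 30 at 50 or 200 µM for 4 h, then IA-DTB (500 µM, 1 h), trypsin-digested, NeutrAvidin-enriched and analysed by diaPASEF. Competition ratio = intensity DMSO / intensity compound (n=4 treated, n=64 DMSO); binding: mean log2 CR ≥ 1 and p ≤ 0.05 plus QC filters. Target is the cysteine site.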

[2] = compound: ClCC(=O)N[C@H]1CCCc2ccccc12; assay: as above; settings: treatment time: 4 h, cell line lysate: HEK293T
Protocol: as §1

Target	log2 mean competition ratio ([1]; 50 µM)	log2 mean competition ratio ([1]; 200 µM)	log2 mean competition ratio ([2]; 50 µM)	log2 mean competition ratio ([2]; 200 µM)
MSRB2 C45 (UniProt Q9Y3D2)	-0.294	0.151	0.142	0.575
NAA40 C26 (UniProt Q86UY6)	0.00881	0.0572	0.508	0.112
MTR C812 (UniProt Q99707)	0.0558	0.309	-0.295	0.488
NARS2 C475 (UniProt Q96I59)	-0.11	0.182	-0.463	0.15
N4BP2L2 C354	0.368	0.489	0.432	0.289
MYH10 C95 (UniProt P35580)	0.091	-0.289	-0.269	-0.559
MRPS9 C330 (UniProt P82933)	-0.0727	-0.201	0.0405	-0.0315
MRPL33 C29 (UniProt O75394)	-0.0141	-0.147	0.299	-0.208
MTG1 C23 (UniProt Q9BT17)	0.0456	0.0346	0.689	0.128
MRPL50 C52 (UniProt Q8N5N7)	-0.275	-0.167	-0.205	-0.208
MTMR3 C867 (UniProt Q13615)	-0.131	-0.034	0.466	0.271
MTCL1 C1615 (UniProt Q9Y4B5)	0.0315	0.0589	0.182	-0.224
NADK2 C311 (UniProt Q4G0N4)	0.104	-0.341	-0.1	-0.0957
MYO9A C1226 (UniProt B2RTY4)	-0.142	-0.0884	-0.0125	0.00777
MYO1B C1123 (UniProt O43795)	0.0367	0.0575	0.271	0.119
MTR C400 (UniProt Q99707)	-0.132	0.801	-0.0819	-0.37

Reprinted at random: 2 entries already listed, in no set order.
Target	log2 mean competition ratio ([1]; 50 µM)	log2 mean competition ratio ([1]; 200 µM)	log2 mean competition ratio ([2]; 50 µM)	log2 mean competition ratio ([2]; 200 µM)
NARS2 C475 (UniProt Q96I59)	-0.11	0.182	-0.463	0.15
MRPL50 C52 (UniProt Q8N5N7)	-0.275	-0.167	-0.205	-0.208
